# Some of the results follow. Further columns of the screen follow, without active or inactive calls. The list favours compounds with an active or inconclusive main result. Potencies come from curve fits of mixed quality, noted in brackets.
# Experiment: qHTS Assay for Identifying the Cell-Membrane Permeable IMPase Inhibitors
# Settings: CHO-M1 cells, IP1 accumulation, HTRF TR-FRET ratio; measured here: donor channel 620 nm AC50
row,Structure (SMILES),AC50
1,CCOc1ccc(C2c3c(oc4ccccc4c3=O)C(=O)N2c2nnc(C)s2)cc1OC (stereo unspecified),"4.47 µM [falling, single point]"
2,Cn1cccc1Cc1nnc(SCC(=O)N2CCN(c3ccccc3)CC2)n1-c1ccc(F)cc1,"6.31 µM [rising, partial curve, poor fit]"
3,CCOc1ncccc1C(=O)Nc1ccccc1C(=O)NCc1ccc2c(c1)OCO2,"5.01 µM [rising, single point]"
4,Cc1cc(C)n2c(Nc3ccccc3)c(-c3ccccc3)nc2n1,"6.31 µM [falling, single point]"
5,CCn1c2ccccc2c2cc(N)ccc21,"0.0631 µM [rising, full curve, poor fit]"
6,CCNc1cc2oc(=O)c(CN3CCOCC3)c(C)c2cc1C,"0.02 µM [rising, full curve, poor fit]"
7,O=C(OCC1CCCN2CCCCC12)c1ccc2c(c1)OCO2 (stereo unspecified),"2 µM [falling, partial curve, poor fit]"
8,CCn1c(SCC(=O)Nc2cccc(F)c2)nnc1-c1cc2cc(Br)ccc2o1,"25.1 µM [rising, single point]"
9,CN(C)c1ccc(C2OC(=O)C(C)(C)C(=O)C2(C)C)cc1 (stereo unspecified),"3.16 µM [rising, partial curve]"
10,CCN(CCCNC(=O)CCNC(=O)Cn1cnc2ccccc2c1=O)c1ccccc1,"3.16 µM [falling, single point]"
11,CCn1c(SCC(=O)Nc2nccs2)nnc1-c1ccncc1,"3.16 µM [falling, single point]"
12,Cc1ccc(C)c(N(CC(=O)NC2CCCC2)C(=O)c2cc3cc4cccc(C)c4nc3s2)c1,"3.98 µM [rising, single point]"
13,CCOC(=O)N1CCN(C(=O)Cn2c(=O)sc3ccccc32)CC1,"0.398 µM [falling, partial curve, poor fit]"
14,CCCC1=Nc2cc(C(=O)NC3CCCC3)ccc2Sc2ccc(C)cc21,"12.6 µM [falling, single point]"
15,CCOC(=O)c1ccc(NS(=O)(=O)c2ccc3c(c2)n(C)c(=O)n3C)cc1,"0.0224 µM [falling, full curve, poor fit]"
16,Cc1cccc(C2N(c3nccs3)C(=O)C3CCCN32)c1 (stereo unspecified),"6.31 µM [rising, full curve, poor fit]"
17,Cc1cc(NC(=O)CCC(=O)N(c2cccnc2)C(C(=O)NC2CCCC2)c2ccccc2F)no1 (stereo unspecified),"0.158 µM [falling, single point]"
18,COc1ccc(-c2csc3nc(-c4ccccc4C)oc(=O)c23)cc1OC,"5.62 µM [rising, single point]"
19,CCN(CC)c1cc(C)c2ccccc2n1,"0.1 µM [rising, single point]"
20,O=C(Nc1cc(-c2nc3ccccc3s2)ccc1Cl)c1cc2ccccc2o1,"11.2 µM [rising, partial curve]"
21,CCn1c(-c2cccc(Cl)c2)n[nH]c1=S,"10 µM [rising, partial curve]"
22,c1ccc(-c2csc3nnc(SCc4ccc5c(c4)OCO5)n23)cc1,"0.0631 µM [falling, full curve, poor fit]"

# Shown as tab-separated lines: three of the compounds above.
row	Structure (SMILES)	AC50
1	CCOc1ccc(C2c3c(oc4ccccc4c3=O)C(=O)N2c2nnc(C)s2)cc1OC (stereo unspecified)	4.47 µM [falling, single point]
2	Cn1cccc1Cc1nnc(SCC(=O)N2CCN(c3ccccc3)CC2)n1-c1ccc(F)cc1	6.31 µM [rising, partial curve, poor fit]
3	CCOc1ncccc1C(=O)Nc1ccccc1C(=O)NCc1ccc2c(c1)OCO2	5.01 µM [rising, single point]

# (further entries)

row,Structure (SMILES),AC50
1,COc1cc2c(cc1OC)C(C)N(C(=O)C1COc3ccccc3O1)CC2 (stereo unspecified),"0.0251 µM [falling, full curve]"
2,CC1(C)CCCC2=C1CC1C(=O)N(Cc3cccnc3)C(=O)C1C2 (stereo unspecified),"0.01 µM [rising, full curve, poor fit]"
3,O=C1OCCC1Sc1nc2cc(Cl)ccc2n1Cc1ccccc1 (stereo unspecified),"0.398 µM [falling, partial curve]"
4,CC(C)(C)NC(=O)C(=O)NNC(=O)c1ccccc1,"0.00631 µM [falling, full curve, poor fit]"
5,CCCn1cnc2c(=O)oc3ccccc3c21,"0.126 µM [rising, single point]"
6,CN(C)CCN1C(=O)C(=O)/C(=C(/O)c2ccc(F)cc2)C1c1ccccc1 (stereo unspecified),"0.0251 µM [rising, full curve, poor fit]"
7,CC(Nc1ccccc1)c1cc(Cl)ccc1O (stereo unspecified),"2.51 µM [falling, partial curve, poor fit]"
8,CCOC(=O)N1CCc2c(sc3c2C(=O)NC(c2ccc(C(=O)OC)cc2)N3)C1 (stereo unspecified),"0.0891 µM [falling, full curve, poor fit]"
9,Cc1cc2oc3c(c(=O)c2cc1C)C(c1ccc(C(C)C)cc1)N(c1nc(C)c(C)s1)C3=O (stereo unspecified),"0.0708 µM [falling, full curve, poor fit]"
10,CN(C)c1ccc(NC(=O)c2cccc(N3C(=O)CCC3=O)c2)cc1,"0.000398 µM [falling, full curve, poor fit]"
11,O=C(OC1CCOC1=O)c1cc(-c2ccc(Cl)cc2)nc2ccccc12 (stereo unspecified),"1.26 µM [rising, single point]"
12,CCNc1nc(-c2ccc(Cl)cc2)cs1,"1 µM [rising, partial curve, poor fit]"
13,CC(C)(C)NC(=O)CSc1nc(-c2ccc(F)cc2)cc(C(F)(F)F)n1,"2 µM [falling, full curve, poor fit]"
14,COc1cc(/C=C(\C#N)c2nc3ccccc3[nH]2)cc(Br)c1OCc1ccc(F)cc1,"0.0631 µM [rising, full curve, poor fit]"
15,CO/N=C/NC(=O)c1c(OC)ccnc1Oc1cccc(C(F)(F)F)c1,"10 µM [rising, partial curve, poor fit]"
16,C=CCOc1ccc(Oc2cc(C)nc(SC)n2)nn1,"3.16 µM [falling, partial curve]"
17,COc1cc(C(=O)NCCC2=CCCCC2)cc(OC)c1OC,"5.01 µM [rising, partial curve, poor fit]"
18,CCCCOc1cccc(C(=O)O)c1,"3.98 µM [falling, partial curve, poor fit]"
19,COc1ccc(NC(=O)Cn2nc(C(F)(F)F)c3c2CCCC3)cc1OC,"0.708 µM [falling, full curve]"
20,CCCCC(c1nnnn1CCOC)N1CCN(Cc2ccccc2)CC1 (stereo unspecified),"31.6 µM [falling, single point]"
21,CCCCc1n[nH]c2c1C(=O)CC(C)(C)C2,"3.98 µM [falling, single point]"
22,O=C(NCCc1ccccc1)C1CCCN(S(=O)(=O)c2cccnc2)C1 (stereo unspecified),"12.6 µM [falling, partial curve]"

row,Structure (SMILES),AC50
1,Cc1ccnc2nc(C(=O)NCc3cccs3)nn12,"5.62 µM [rising, single point]"
2,CSc1ccccc1C(=O)N1CCOCC1,"0.126 µM [falling, single point]"
3,c1ccn2c(CNc3ncnc4sccc34)nnc2c1,"0.0501 µM [rising, full curve, poor fit]"
4,CCC(CC)NC(=O)CSc1nnc(-c2ccc(OC)cc2)n1C(C)C,"35.5 µM [falling, single point]"
5,O=C(O)c1cccc(NC(=S)NC(=O)C(c2ccccc2)c2ccccc2)c1,"3.98 µM [falling, full curve]"
6,COc1cccc(NC(=O)c2cn(C3CCCCC3)c(=O)c3c2c2ccccc2n3C)c1,"3.55 µM [falling, partial curve, poor fit]"
7,Cc1cc(F)ccc1NC(=O)c1sc2nc(-c3cccs3)ccc2c1N,"5.62 µM [rising, partial curve]"
8,Cc1c(C2N3CC4(C)CN2CC(C)(C3)C4=O)c2ccccc2n1C (stereo unspecified),"0.0631 µM [rising, partial curve, poor fit]"
9,NC(=O)NCc1ccc(Cl)cc1,"2.51 µM [rising, single point]"
10,COc1ccc(NC(=O)C2CCN(S(=O)(=O)c3cccc4cccnc34)CC2)cc1OC,"35.5 µM [rising, single point]"
11,CC(C)C(=O)NCCCc1ccccc1,"5.01 µM [rising, single point]"
12,O=C1CN(C(=O)CSc2nc3cc(Cl)ccc3c(=O)n2Cc2ccccc2)c2ccccc2N1,"0.0355 µM [rising, full curve, poor fit]"
13,COc1ccc(NC(=O)Cn2cc(C(=O)C3CC3)c3ccccc32)cc1,"5.62 µM [falling, single point]"
14,O=C(NC(=S)Nc1ccc(Cl)cn1)C(c1ccccc1)c1ccccc1,"0.0158 µM [falling, full curve, poor fit]"
15,CC(=O)C1=C(C)NC(SCC(=O)c2ccc(Cl)cc2)=C(C#N)C1CC(C)C (stereo unspecified),"12.6 µM [rising, partial curve]"
16,CCn1c(CCNC(=O)c2ccc(Cl)cc2Cl)n[nH]c1=S,"0.794 µM [falling, full curve, poor fit]"
17,Cc1c(Cl)cnc(NC(=O)CSc2nnc(C)n2Cc2ccccc2)c1Cl,"5.01 µM [falling, single point]"
18,COc1ccc(-n2nc(C(=O)N3CCN(Cc4ccc5c(c4)OCO5)CC3)c3ccccc3c2=O)cc1,"4.47 µM [falling, partial curve]"
19,C=C(C)c1cccc(C(C)(C)NC(=O)NCC2COCCO2)c1 (stereo unspecified),"0.126 µM [rising, full curve, poor fit]"
20,O=C(Nc1ccccc1)c1cc2c(=O)c3ccccc3oc2nc1C(F)(F)F,"1.26 µM [rising, partial curve]"
21,CCOC(=O)c1c(-c2ccc(OC)c(OC)c2)csc1NC(=O)c1ccccc1F,"0.282 µM [falling, full curve]"
22,CC(C)CN(C(=O)COC(=O)Cn1cnc2ccccc2c1=O)C1CCS(=O)(=O)C1 (stereo unspecified),"12.6 µM [falling, single point]"
